In PubChem BioAssay AID330 (DTP/NCI, 2004):
The list shows only some results of the screen, not a fair sample: it is rich in T/C values a quarter to a half above the control, in often repeated tests (any T/C) and in doses without a T/C. Other doses and runs of a compound stand elsewhere. T/C is the treated group as % of the vehicle group. Some doses have a count of surviving animals in place of a T/C: the source files T/C as zero there, which appears to mark a toxic dose or a test without result, not a measured value. Some survivor counts are full or nearly so, which does not show that the dose was tolerated: survival well below the control is almost never listed, so the zero probably covers shortened survival too. Counts of survivors are from the toxicity check (mostly the fifth day) where no day follows; animals may have died later. Schedule codes are those of the source, read here as Q, the interval in days (D) or hours (H), X, the number of doses. Some doses were run more than once; their values stand side by side, smallest first. For survival time, the PubChem record calls one and a half times the control and up active, and a quarter to a half above the control has no call in these data; cut-offs in other NCI protocols can differ. Some T/C values are followed by the survivors on the day toxicity was checked, most often the fifth; without a count, all were alive then.

System: P388 leukemia ip, CD2F1 mice, survival T/C
Test: NCI In Vivo Anticancer Drug Screen. Data for tumor model P388 Leukemia (intraperitoneal) in CD2F1 (CDF1) mice
Details: T/C endpoint: median survival time, higher T/C = longer survival
[1] = dose: 240.0 mg/kg/injection, schedule: Q01DX005 (ip), vehicle: saline
[2] = dose: 50.0 mg/kg/injection, schedule: Q01DX009 (ip), vehicle: Klucel (hydroxypropylcellulose) (HPC)
[3] = dose: 100.0 mg/kg/injection, schedule: Q01DX009 (ip), vehicle: Klucel (hydroxypropylcellulose) (HPC)
[4] = dose: 200.0 mg/kg/injection, schedule: Q01DX009 (ip), vehicle: Klucel (hydroxypropylcellulose) (HPC)
[5] = dose: 200.0 mg/kg/injection, schedule: Q01DX005 (ip), vehicle: saline with Tween-80
[6] = dose: 12.5 mg/kg/injection, schedule: Q01DX009 (ip), vehicle: saline with Tween-80
[7] = dose: 25.0 mg/kg/injection, schedule: Q01DX009 (ip), vehicle: saline with Tween-80
[8] = dose: 50.0 mg/kg/injection, schedule: Q01DX009 (ip), vehicle: saline with Tween-80
[9] = dose: 100.0 mg/kg/injection, schedule: Q01DX009 (ip), vehicle: saline with Tween-80
[10] = dose: 200.0 mg/kg/injection, schedule: Q01DX009 (ip), vehicle: saline with Tween-80
[11] = dose: 100.0 mg/kg/injection, schedule: Q01DX005 (ip), vehicle: saline with Tween-80
[12] = dose: 50.0 mg/kg/injection, schedule: Q01DX009 (ip), vehicle: saline
[13] = dose: 100.0 mg/kg/injection, schedule: Q01DX009 (ip), vehicle: saline
[14] = dose: 200.0 mg/kg/injection, schedule: Q01DX009 (ip), vehicle: saline

With `CCCCCNc1ncnc2c(C)[nH]nc12` the survivor count (dose: 400.0 mg/kg/injection, schedule: Q01DX005 (ip), vehicle: Klucel (hydroxypropylcellulose) (HPC)) was 0 of 6.

For `NC(Cc1ccccc1)C(=O)Nc1cccnc1` (stereo not given), the survivor count (dose: 120.0 mg/kg/injection, schedule: Q01DX005 (ip), vehicle: saline) was 0 of 6 and the survivor count [1] was 0 of 6.

In the case of `O=C1CN(C(=O)Nc2ccc(Cl)c(Cl)c2)C(=S)N1`, the survivor count [2] is reported as 4 of 6 and 5 of 6, the survivor count [3] is reported as 1 of 6 and the survivor count [4] is reported as 0 of 6.

In the case of `NCCc1ccncc1`, the survivor count (dose: 240.0 mg/kg/injection, schedule: Q01DX005 (ip), vehicle: suspension in saline) is reported as 3 of 6.

In the case of `Nc1cc(Cl)c2[nH]c(-c3ccccc3)nc2n1`, the survivor count (dose: 200.0 mg/kg/injection, schedule: Q01DX001 (ip), vehicle: saline with Tween-80) is reported as 6 of 6.

With `Cc1cc(C=C2C(=O)NC(=O)NC2=O)cc(C)c1O` the survivor count [5] was 3 of 5.

For `C(CCOCC1CO1)COCC1CO1` (stereo not given), the T/C [2] was 125 % of control, the T/C [3] was 136 % of control and the T/C [4] was 133 and 138 % of control.

For `CCN(CC)C(C)(C)C(=O)/C=C/c1ccc(Cl)cc1`, the survivor count [1] was 6 of 6.

For `CSC(=S)NN=C1CCCCC1`, the T/C (dose: 3.13 mg/kg/injection, schedule: Q01DX009 (ip), vehicle: saline with Tween-80) was 142 % of control, the survivor count (dose: 6.25 mg/kg/injection, schedule: Q01DX009 (ip), vehicle: saline with Tween-80) was 1 of 6 and the survivor count [6] was 2 of 6. The survivor count [7] was 3 of 6 and the survivor count [8] was 3 of 6.

In the case of `OC(c1cc2cc(Cl)ccc2c2cc(C(F)(F)F)ccc12)C1CCCCN1` (stereo not given), the survivor count [7] is reported as 6 of 6, the survivor count [8] is reported as 2 of 6 and the survivor count [9] is reported as 0 of 6. The survivor count [10] was 0 of 6.

`Fc1cccc(CSc2ncnc3nc[nH]c23)c1` was tested, and the survivor count (dose: 400.0 mg/kg/injection, schedule: Q04DX003 (ip), vehicle: saline with Tween-80) was 1 of 6.

With `CC(N)(CSCc1ccccc1)C(=O)O` (stereo not given) the survivor count [4] was 3 of 6.

`O=NN(CCCl)C(=O)NC1CCCCC1` was tested, and the T/C (dose: 2.0 mg/kg/injection, schedule: Q01DX009 (ip), vehicle: saline with Tween-80) was 127 % of control, the T/C (dose: 8.0 mg/kg/injection, schedule: Q01DX001 (ip), vehicle: saline + alcohol, evaluated on day 5) was 126 % of control and the T/C (dose: 8.0 mg/kg/injection, schedule: Q01DX001 (ip), vehicle: saline + alcohol, evaluated on day 45) was 127 % of control. For the same compound, the T/C (dose: 12.0 mg/kg/injection, schedule: Q04DX003 (ip), vehicle: carboxymethylcellulose (CMC)) was 125 % of control, the T/C (dose: 16.0 mg/kg/injection, schedule: Q01DX001 (ip), vehicle: saline + alcohol, evaluated on day 5) was 131 % of control and the T/C (dose: 16.0 mg/kg/injection, schedule: Q01DX001 (ip), vehicle: saline + alcohol, evaluated on day 45) was 136 % of control. For the same compound, the T/C (dose: 32.0 mg/kg/injection, schedule: Q01DX001 (ip), vehicle: saline + alcohol, evaluated on day 5) was 147 % of control, the T/C (dose: 32.0 mg/kg/injection, schedule: Q01DX001 (ip), vehicle: saline + alcohol, evaluated on day 45) was 145 % of control and the T/C (dose: 32.0 mg/kg/injection, schedule: Q01DX009 (ip), vehicle: saline with Tween-80) was 136 % of control. For the same compound, the survivor count (dose: 64.0 mg/kg/injection, schedule: Q01DX009 (ip), vehicle: saline with Tween-80) was 5 of 6.

In the case of `CCCCN(CCCC)CN(CCCC)CCCC`, the survivor count [11] is reported as 2 of 6 and the survivor count [5] is reported as 0 of 6.

For `C=CC1CN2CCC1CC2C(OC(=O)OCCOC(=O)C(=C)C)c1ccnc2ccc(OC)cc12` (stereo not given), the T/C (dose: 25.0 mg/kg/injection, schedule: Q01DX009 (ip), vehicle: saline) was 86, 93, 100, 101 % of control, the T/C [12] was 99, 101, 108 % of control and the survivor count [12] was 3 of 6 and 5 of 6. For the same compound, the T/C [13] was 91 [5 of 6 alive], 100 [4 of 6 alive], 105 [5 of 6 alive], 111 % of control [5 of 6 alive], the survivor count [13] was 3 of 6 and the T/C [14] was 98 [4 of 6 alive], 99, 107, 129 % of control. For the same compound, the survivor count [14] was 3 of 6.

`C(=C\c1ccccc1)/c1ccccc1` was tested, and the survivor count (dose: 50.0 mg/kg/injection, schedule: Q01DX005 (ip), vehicle: saline with Tween-80) was 1 of 6, the survivor count [11] was 0 of 6 and the survivor count [5] was 0 of 6.

In the case of `CC(C)CNC(=O)OCc1c(COC(=O)NCC(C)C)c(-c2ccc(Cl)c(Cl)c2)n2c1CCC2`, the T/C (dose: 12.5 mg/kg/injection, schedule: Q01DX009 (ip), vehicle: distilled water + Tween-80, evaluated on day 30) is reported as 148 % of control, the T/C (dose: 12.5 mg/kg/injection, schedule: Q01DX009 (ip), vehicle: distilled water + Tween-80, evaluated on day 45) is reported as 144 % of control and the T/C (dose: 100.0 mg/kg/injection, schedule: Q01DX009 (ip), vehicle: distilled water + Tween-80) is reported as 143 % of control.

`CCC[CH2][Sn]([CH2]CCC)([S]CC(=O)OC)[S]CC(=O)OC` was tested, and the survivor count (dose: 50.0 mg/kg/injection, schedule: Q01DX001 (ip), vehicle: Klucel (hydroxypropylcellulose) (HPC)) was 1 of 6, the survivor count (dose: 100.0 mg/kg/injection, schedule: Q01DX001 (ip), vehicle: Klucel (hydroxypropylcellulose) (HPC)) was 1 of 6 and the survivor count (dose: 200.0 mg/kg/injection, schedule: Q01DX001 (ip), vehicle: Klucel (hydroxypropylcellulose) (HPC)) was 0 of 6. The survivor count (dose: 400.0 mg/kg/injection, schedule: Q01DX001 (ip), vehicle: Klucel (hydroxypropylcellulose) (HPC)) was 0 of 6.

`C#CCOc1ccccc1/C(Cl)=N/Nc1ccc([N+](=O)[O-])cc1[N+](=O)[O-]` was tested, and the survivor count [6] was 6 of 6, the survivor count [8] was 6 of 6 and the survivor count [9] was 6 of 6. The survivor count [10] was 6 of 6.

With `N=c1nc2ccc3ccccc3c2nn1-c1ccc([N+](=O)[O-])cc1` the survivor count [2] was 5 of 6, the survivor count [3] was 6 of 6 and the survivor count [4] was 3 of 6.

`CCOC(=O)NN(C(=O)OCC)C(C)(C)C(C)=O` was tested, and the survivor count (dose: 100.0 mg/kg/injection, schedule: Q01DX001 (ip), vehicle: saline) was 3 of 6.

In the case of `CC(C)CC1N=C(NN=C(CCl)CCl)OP1(=O)NCCCCCCNP1(=O)OC(NN=C(CCl)CCl)=NC1CC(C)C` (stereo not given), the survivor count (dose: 120.0 mg/kg/injection, schedule: Q01DX005 (ip), vehicle: Klucel (hydroxypropylcellulose) (HPC)) is reported as 3 of 6 and the survivor count (dose: 240.0 mg/kg/injection, schedule: Q01DX005 (ip), vehicle: Klucel (hydroxypropylcellulose) (HPC)) is reported as 0 of 6.

With `CCOCN(COCC)C(C)Cc1ccccc1` (stereo not given) the survivor count [8] was 2 of 6, the survivor count [9] was 2 of 6 and the survivor count [10] was 0 of 6.

For `CN(C)c1ccc(/C=C/c2nccc3ccccc23)cc1`, the survivor count [8] was 5 of 6, the survivor count [9] was 0 of 6 and the survivor count [10] was 0 of 6. The survivor count (dose: 400.0 mg/kg/injection, schedule: Q01DX009 (ip), vehicle: saline with Tween-80) was 0 of 6.
